Experimental data published in publication PMC10511752, “Natural product-inspired synthesis of coumarin–chalcone hybrids as potential anti-breast cancer agents” (Frontiers in Pharmacology, 2023).

Test system: MDA-MB-231 (breast cancer) cells
Assay: MTT cell proliferation assay, MDA-MB-231
Type: cell-based
Conditions: Homo sapiens, MDA-MB-231 (ER -ve), 48 h, read-out: IC50 values (mean ± SEM) MDA-MB-231
Method: We conducted an in vitro MTT assay to evaluate the anti-cancer activity of the synthesized neo-tanshinlactone–chalcone hybrid compounds, 26–37, against four human cancer cell lines, namely, MCF-7 (breast cancer), MDA-MB-231 (breast cancer), Ishikawa (endometrial cancer), and HeLa (cervical cancer). The toxicity of the hybrid molecules on the normal human embryonic kidney cell line HEK-293 was also evaluated.
MCF-7, MDA-MB231, and HEK293 cell lines were purchased from ATCC (Manassas, VA, United States). Ishikawa cell lines were obtained from the European Collection of Cell Cultures. They were maintained in Dulbecco’s modified Eagle medium (DMEM) supplemented with 10% fetal bovine serum (FBS). Cells were cultured at 37°C and 5% CO2. Before the experiments, cells were cultured in phenol red-free DMEM supplemented with 10% charcoal stripped fetal bovine serum.
The synthesized hybrid compounds were tested for their anti-cancer activity using the MTT reduction assay on 2.5 × 10^3 cells per well that were seeded in 100 µL DMEM supplemented with 10% FBS in each well of 96-well microculture plates. After seeding, the cells were incubated for 24 h at 37°C in a CO2 incubator. […] The absorbance was then recorded at a wavelength of 540 nm ([Saquib et al., 2021]; [Gupta et al., 2022]; [Iqbal et al., 2023])

IC50: 15.5 ± 2.64 µM
Structure (SMILES): CC/C(=C(\c1ccccc1)c1ccc(OCCN(C)C)cc1)c1ccccc1 [TAM, tamoxifen, reference compound]
